From PubChem BioAssay AID2685 (National Center for Advancing Translational Sciences (NCATS), 2010)
The list shows a part of the results. Further columns of the screen follow, without active or inactive calls. The list favours compounds with an active or inconclusive main result. The note in brackets gives the kind of curve behind each potency; many fits are weak.

Experiment: qHTS Assay for Lipid Storage Modulators in Drosophila S3 Cells;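 on cell number change: cells counted by Cell Tracker Red CMTPX staining in the red channel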
Conditions: BODIPY lipid droplet fluorescence, 18-24 h; for cell number change: measured here: cell count max response, cells fed with added oleic acid
Summary of the method: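 Drosophila S3 cells loaded with oleic acid (400 uM, as added) and compounds at several concentrations; lipid droplets imaged by 488-nm laser-scanning cytometry, 500–530 nm intensity and object ratio to cell channel. Percent activity normalized to 20 uM Triacsin C.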

[1] = measured here: lipid fluorescence (Fed channel) AC50, cells fed with added oleic acid
[2] = measured here: cell number channel AC50, cells fed with added oleic acid

| Compound | cell number change [%] | AC50 [1] | AC50 [2] |
| --- | --- | --- | --- |
| CC(C)C[C@@H]1NC(=O)N(CCCn2ccnc2)C1=O | 8.33 | 10.3 µM [rising, partial curve] |  |
| COc1ccc(OC)c(CCNC(=O)Cn2nc(C)c3c(C)n(-c4ccc(C)cc4)nc3c2=O)c1 | 1.15 | 29.1 µM [rising, single point] |  |
| Oc1ccc(Cl)cc1N=Nc1ccccc1 | -19.2 | 29.1 µM [falling, single point] |  |
| COC(=O)N1CC(c2ccccc2)CC1=O (stereo unspecified) | -7.05 |  | 1.16 µM [falling, full curve, poor fit] |
| O=C(COC(=O)Cc1ccccc1F)Nc1ccc2[nH]c(=O)[nH]c2c1 | 0.724 | 20.6 µM [falling, single point] |  |
| Cc1cnc(=O)[nH]c1SCC(=O)c1ccc(F)cc1 | -20.3 |  |  |
| O=C(NC1(Cc2ccc(O)cc2)CCCCC1)c1ccccc1 |  | 7.31 µM [falling, partial curve] |  |
| COc1ccc(C(C#N)c2nc3ccccc3nc2Cl)cc1 (stereo unspecified) | 66.9 | 0.58 µM [falling, single point] |  |
| Cc1cc(C)cc(OCC(=O)Nc2ccccc2N2CCCCC2)c1 | 33.7 | 0.82 µM [rising, single point] | 1.84 µM [rising, full curve, poor fit] |
| C=CCC(Nc1ccco1)c1ccccc1 (stereo unspecified) | -31.6 |  | 32.6 µM [falling, single point] |
| O=C(CSc1nnc(-c2cccnc2)n1Cc1ccco1)Nc1nc(-c2ccc(F)cc2)cs1 | -1.03 |  |  |
| CC1CN(C(=O)C2CCCCC2)C(C)CN1C(=O)C1CCCCC1 (stereo unspecified) | 1.37 | 6.51 µM [rising, single point] |  |
| COc1cc(C2C3C(=O)N(Cc4ccccc4)C(=O)C3ON2c2ccccc2)cc(OC)c1OC (stereo unspecified) | -19.1 | 0.116 µM [rising, full curve, poor fit] |  |
| CCOc1cc(C2/C(=C(/O)c3ccc(S(=O)(=O)N4CCCCC4)cc3)C(=O)C(=O)N2CCOC)ccc1O (stereo unspecified) | 11.6 |  |  |
| COc1ccc(-c2nn(CCC#N)cc2/C=N/O)cc1OC | 43.7 | 6.51 µM [falling, single point] | 7.31 µM [rising, partial curve] |
| COc1ccc(NS(=O)(=O)c2cccc(C(=O)NNC(=O)c3cccn3C)c2)cc1 |  | 23.1 µM [rising, single point] |  |
| Cc1ccc(N(CC(=O)N2CCN(C3CCCCC3)CC2)S(=O)(=O)c2cccnc2)cc1 | 10.2 |  |  |
| Nc1nonc1-n1nnc(C(=O)N/N=C/c2ccco2)c1CSc1ccccc1 | 96 |  | 14.6 µM [rising, partial curve, poor fit] |
| COc1ccc(-c2nnc3sc(CN4C(=O)c5ccccc5C4=O)nn23)cc1 | 2.09 |  |  |
| Cc1ccc(Cl)cc1NC(=O)CCC(=O)Nc1cc(Cl)ccc1C | 0.478 | 0.00517 µM [rising, full curve] |  |
| O=C(C1=C(O)C(=O)N(CCCN2CCOCC2)C1c1ccccn1)c1cccs1 (stereo unspecified) | 41 | 25.9 µM [rising, partial curve] | 29.1 µM [rising, single point] |

Full records from above:
COc1ccc(-c2nn(CCC#N)cc2/C=N/O)cc1OC is listed with cell number change [%]: 43.7; AC50 [1]: 6.51 µM [falling, single point]; AC50 [2]: 7.31 µM [rising, partial curve]
COc1cc(C2C3C(=O)N(Cc4ccccc4)C(=O)C3ON2c2ccccc2)cc(OC)c1OC (stereo unspecified) is listed with cell number change [%]: -19.1; AC50 [1]: 0.116 µM [rising, full curve, poor fit]
COc1ccc(C(C#N)c2nc3ccccc3nc2Cl)cc1 (stereo unspecified) is listed with cell number change [%]: 66.9; AC50 [1]: 0.58 µM [falling, single point]
COC(=O)N1CC(c2ccccc2)CC1=O (stereo unspecified) is listed with cell number change [%]: -7.05; AC50 [2]: 1.16 µM [falling, full curve, poor fit]

Next part:

| Compound | cell number change [%] | AC50 [1] | AC50 [2] |
| --- | --- | --- | --- |
| O=C(Cc1cccs1)N/N=C\c1ccc([N+](=O)[O-])s1 | -48.8 | 13 µM [falling, partial curve] | 9.2 µM [falling, partial curve, poor fit] |
| CCCNC(=O)COC(=O)/C=C/c1cccc(F)c1 | 35.9 |  | 8.2 µM [rising, partial curve, poor fit] |
| CSCC[C@H](NC(=O)c1ccc2c(c1)OCO2)c1nnc2ccccn12 | 5.34 |  |  |
| Cc1ccc(NC(=O)c2cc3ccccc3o2)cc1S(=O)(=O)N(C)C | 38.7 | 0.92 µM [rising, partial curve] | 0.0651 µM [rising, full curve, poor fit] |
| CN(CC(=O)Nc1ccc(Cl)cc1)C(=O)c1ccc(S(=O)(=O)Nc2ccccc2)cc1 |  |  | 1.3 µM [rising, full curve, poor fit] |
| O=C(OCN1C(=O)c2ccccc2C1=O)c1cccnc1SC(F)F | -11.3 |  |  |
| COC(C(=O)Nc1ccnn1C1CCN(Cc2ccc(CO)o2)CC1)c1ccccc1 (stereo unspecified) | -21.8 |  |  |
| Cc1nn(C)c(C(=O)N/N=C/c2ccc(-c3ccccc3)cc2)c1Cl | 12.9 | 25.9 µM [rising, single point] |  |
| COc1ccc(OCCN(C)C(=O)c2cccc(S(=O)(=O)N(C)c3ccccc3)c2)cc1 | 26 | 2.91 µM [rising, full curve] | 1.84 µM [rising, full curve, poor fit] |
| CN(C(=O)CSc1nnc(NCc2ccccc2)s1)C1CCS(=O)(=O)C1 (stereo unspecified) | -7.08 | 0.411 µM [rising, single point] |  |
| O=C(COC(=O)Cc1ccccc1F)NNC(=O)c1ccc([N+](=O)[O-])cc1 | -25 |  |  |
| CCOC(=O)c1oc2ccc(/C=N/O)c(Cl)c2c1C | 10.1 | 6.51 µM [falling, single point] | 4.61 µM [falling, single point] |
| O=C(N/N=C/c1ccc([N+](=O)[O-])cc1)c1cccc(N2CCCC2=O)c1 |  | 29.1 µM [falling, single point] |  |
| Cc1cc(OCC(=O)NCc2ccccn2)c2c(C)cc(=O)oc2c1 | -3.06 | 14.6 µM [falling, single point] |  |
| Cc1ccc(OCC(=O)N(C)CCc2ccccn2)cc1 | 23.8 | 9.2 µM [rising, partial curve] |  |
| Fc1ccccc1CSc1ncnc2sc3c(c12)CCCC3 | 17 | 2.59 µM [rising, partial curve, poor fit] | 6.51 µM [rising, single point] |
| O=C(CSc1nc2ccccc2c(=O)n1-c1ccccc1)N1CCN(CCO)CC1 | 3.98 | 0.164 µM [falling, full curve, poor fit] |  |
| COc1ccc(S(=O)(=O)c2cnc3ccc(OC)cc3c2N2CCC3(CC2)OCCO3)cc1 | 34.8 | 20.6 µM [rising, partial curve] | 4.11 µM [rising, partial curve] |
| O=C1C(Cc2ccc(F)cc2)SC(=Nc2ccccc2)N1c1ccccc1 (stereo unspecified) | 14.6 | 16.4 µM [rising, single point] |  |
| CCOC(=O)C1=C(N)Oc2cc(C)oc(=O)c2C1c1cccnc1 (stereo unspecified) | 37.3 |  | 0.651 µM [rising, full curve] |
| CCn1c(SCC(=O)Nc2nonc2C)nnc1-c1ccoc1C | -7.85 | 0.231 µM [falling, full curve] |  |

| Compound | cell number change [%] | AC50 [1] | AC50 [2] |
| --- | --- | --- | --- |
| COc1ccc(Cl)cc1-n1c(C)ccc1C | -7.47 |  | 0.259 µM [falling, full curve, poor fit] |
| Cc1nc(N2CCN(c3ccccn3)CC2)c2c(C)c(C(=O)N3CCN(c4cccc(Cl)c4)CC3)sc2n1 | 196 | 29.1 µM [rising, single point] | 29.1 µM [rising, single point] |
| CC(C)NC(=O)/C(C#N)=C\c1ccc(N(C)C)c(Br)c1 | -23.3 |  | 2.31 µM [falling, partial curve] |
| COc1ccc(-c2cc(C)no2)cc1S(=O)(=O)N1CCCCC1 | -19.3 | 20.6 µM [falling, partial curve] |  |
| O=c1c2ccccc2nc(CSc2nnnn2-c2ccccc2)n1-c1ccccc1 | 26.8 |  |  |
| COC(=O)c1ccc(C(=O)N2CCCC(Nc3ccc(C(C)C)cc3)C2)nc1 (stereo unspecified) | -16.4 | 23.1 µM [falling, single point] |  |
| O=C(CN1CCOCC1)N(c1ccccc1)c1ccc2ccccc2c1 | 70.2 | 0.058 µM [falling, partial curve, poor fit] | 13 µM [rising, partial curve, poor fit] |
| O=C(NCCN1CCOCC1)c1ccc(Cl)c(Cl)c1 | 17.9 | 0.651 µM [falling, full curve] |  |
| CC1NC(=S)N(Cc2ccccc2)C1=O (stereo unspecified) | 15.8 | 29.1 µM [falling, single point] |  |
| Cc1cc(C)c2c(CN3CCCCC3C)cc(=O)oc2c1 (stereo unspecified) | 45.4 | 18.4 µM [rising, partial curve] | 23.1 µM [rising, single point] |
| O=C1OCCC1Sc1nnc(-c2ccccc2Br)n1Cc1ccccc1 (stereo unspecified) | -18.6 | 6.51 µM [rising, single point] |  |
| CCC1Oc2ccc(C)cc2N(CC(=O)NCCCN2CCOCC2)C1=O (stereo unspecified) | 9.4 |  |  |
| COc1cc(/C=C(\C#N)C(=O)Nc2ccc(C(=O)O)cc2)ccc1OC(=O)c1cccc(F)c1 | -21.7 | 6.51 µM [rising, single point] |  |
| COc1ccccc1C(C)NC(=O)c1ccc(C)o1 (stereo unspecified) |  |  | 0.326 µM [rising, partial curve] |
| CCOC(=O)c1c2ccc(OCC(=O)N/N=C/c3ccccc3C(F)(F)F)cc2n2ccccc12 | 22.9 | 1.46 µM [rising, full curve, poor fit] |  |
| CCC(=O)Nc1c(S(=O)(=O)c2ccccc2)c2nc3ccccc3nc2n1Cc1ccccc1 | 13.2 | 29.1 µM [rising, single point] |  |
| O=C(CNC(=O)c1ccc2ccccc2c1)NCc1ccc(F)cc1 | 182 |  | 18.4 µM [rising, partial curve] |
| CC(C)c1ccc(-c2cc(C(=O)N3N=C(C(F)F)CC3(O)C(F)F)c3ccccc3n2)cc1 (stereo unspecified) | -84.7 |  |  |
| O=C(C1CCC1)N1CCN(S(=O)(=O)c2ccccc2)CC1 | 6.02 |  |  |
